Reference: the supplement of paper PMC10849652
This is one part of the list.

Sequences of proteins named here, by UniProt entry; tags and fusion partners are left off. A change or cut given only in a name is not applied to a line headed by its entry.
UniProt Q53FT3: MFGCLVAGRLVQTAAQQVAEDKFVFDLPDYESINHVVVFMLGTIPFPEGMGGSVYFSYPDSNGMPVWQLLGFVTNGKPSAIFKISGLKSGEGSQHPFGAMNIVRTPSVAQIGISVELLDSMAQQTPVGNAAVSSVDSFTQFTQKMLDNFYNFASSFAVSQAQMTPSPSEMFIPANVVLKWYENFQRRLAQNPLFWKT
UniProt Q01581: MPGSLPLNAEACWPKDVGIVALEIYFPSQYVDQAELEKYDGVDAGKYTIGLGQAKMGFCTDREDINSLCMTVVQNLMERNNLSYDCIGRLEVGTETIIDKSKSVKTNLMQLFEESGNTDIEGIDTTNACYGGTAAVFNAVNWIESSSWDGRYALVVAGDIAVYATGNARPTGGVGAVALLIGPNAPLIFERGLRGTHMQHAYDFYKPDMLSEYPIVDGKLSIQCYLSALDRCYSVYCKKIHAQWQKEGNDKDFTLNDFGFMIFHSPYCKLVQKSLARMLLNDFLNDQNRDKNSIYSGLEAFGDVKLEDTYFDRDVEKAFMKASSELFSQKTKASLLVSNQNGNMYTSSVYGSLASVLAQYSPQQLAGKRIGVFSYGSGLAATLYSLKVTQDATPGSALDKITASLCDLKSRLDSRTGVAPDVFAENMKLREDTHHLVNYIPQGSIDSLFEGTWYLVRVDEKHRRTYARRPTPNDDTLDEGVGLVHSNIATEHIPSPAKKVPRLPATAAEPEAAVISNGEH
UniProt O43464: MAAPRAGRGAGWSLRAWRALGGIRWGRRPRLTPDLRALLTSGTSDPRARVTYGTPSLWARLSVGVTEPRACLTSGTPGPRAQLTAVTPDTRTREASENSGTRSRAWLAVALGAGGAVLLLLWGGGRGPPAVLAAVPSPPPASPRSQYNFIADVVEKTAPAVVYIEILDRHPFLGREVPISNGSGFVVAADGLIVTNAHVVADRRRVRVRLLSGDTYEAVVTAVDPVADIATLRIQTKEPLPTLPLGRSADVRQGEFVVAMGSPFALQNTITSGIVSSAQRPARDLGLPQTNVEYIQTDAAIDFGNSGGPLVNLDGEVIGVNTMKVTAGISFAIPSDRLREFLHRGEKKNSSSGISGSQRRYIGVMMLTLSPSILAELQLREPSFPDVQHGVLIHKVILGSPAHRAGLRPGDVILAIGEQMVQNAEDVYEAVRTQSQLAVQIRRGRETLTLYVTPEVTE
UniProt Q14103: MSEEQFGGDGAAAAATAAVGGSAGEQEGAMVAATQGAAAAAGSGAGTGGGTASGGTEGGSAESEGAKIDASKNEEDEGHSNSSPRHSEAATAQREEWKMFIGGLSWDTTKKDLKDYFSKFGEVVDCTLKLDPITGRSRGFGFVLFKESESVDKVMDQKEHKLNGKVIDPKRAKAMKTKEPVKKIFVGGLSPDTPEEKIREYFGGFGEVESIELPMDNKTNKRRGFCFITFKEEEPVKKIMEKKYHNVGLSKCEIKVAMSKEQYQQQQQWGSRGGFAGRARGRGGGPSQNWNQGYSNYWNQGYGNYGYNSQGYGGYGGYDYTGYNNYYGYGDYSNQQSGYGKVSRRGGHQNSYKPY
UniProt P50747: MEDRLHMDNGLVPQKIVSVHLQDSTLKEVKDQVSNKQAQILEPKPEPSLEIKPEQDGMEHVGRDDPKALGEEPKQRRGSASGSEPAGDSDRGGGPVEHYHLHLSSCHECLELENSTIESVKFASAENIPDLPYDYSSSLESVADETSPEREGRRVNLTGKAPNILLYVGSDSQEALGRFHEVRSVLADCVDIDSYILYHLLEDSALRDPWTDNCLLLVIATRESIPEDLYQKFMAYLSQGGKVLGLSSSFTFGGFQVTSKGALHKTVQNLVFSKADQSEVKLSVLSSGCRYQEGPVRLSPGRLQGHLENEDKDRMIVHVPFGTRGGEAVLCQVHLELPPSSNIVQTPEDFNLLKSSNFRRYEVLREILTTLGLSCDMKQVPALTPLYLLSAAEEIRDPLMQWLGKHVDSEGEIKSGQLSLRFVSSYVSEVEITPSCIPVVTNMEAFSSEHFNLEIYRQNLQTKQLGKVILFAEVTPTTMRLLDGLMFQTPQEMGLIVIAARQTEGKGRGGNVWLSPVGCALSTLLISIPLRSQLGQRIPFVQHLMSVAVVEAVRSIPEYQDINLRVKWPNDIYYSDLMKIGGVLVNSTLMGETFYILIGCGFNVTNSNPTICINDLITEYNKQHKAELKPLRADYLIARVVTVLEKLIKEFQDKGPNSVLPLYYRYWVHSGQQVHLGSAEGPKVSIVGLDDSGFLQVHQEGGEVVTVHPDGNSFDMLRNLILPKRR
UniProt O43390: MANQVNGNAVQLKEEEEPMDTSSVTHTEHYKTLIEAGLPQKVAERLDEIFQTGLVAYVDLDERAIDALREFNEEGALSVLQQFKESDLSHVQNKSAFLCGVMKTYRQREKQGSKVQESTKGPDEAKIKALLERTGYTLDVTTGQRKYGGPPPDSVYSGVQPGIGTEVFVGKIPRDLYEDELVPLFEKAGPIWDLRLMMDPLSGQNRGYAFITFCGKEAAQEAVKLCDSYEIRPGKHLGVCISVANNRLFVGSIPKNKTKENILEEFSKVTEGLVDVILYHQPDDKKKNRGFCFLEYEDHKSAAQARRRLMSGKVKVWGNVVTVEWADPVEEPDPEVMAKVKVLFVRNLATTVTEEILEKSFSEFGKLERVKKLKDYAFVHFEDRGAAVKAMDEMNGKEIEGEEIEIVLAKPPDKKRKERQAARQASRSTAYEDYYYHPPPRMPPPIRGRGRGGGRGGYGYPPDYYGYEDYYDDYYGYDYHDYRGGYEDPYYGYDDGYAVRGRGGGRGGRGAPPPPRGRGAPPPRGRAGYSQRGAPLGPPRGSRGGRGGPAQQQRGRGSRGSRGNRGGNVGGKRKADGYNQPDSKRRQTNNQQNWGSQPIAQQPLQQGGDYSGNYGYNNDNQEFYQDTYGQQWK
UniProt Q00613: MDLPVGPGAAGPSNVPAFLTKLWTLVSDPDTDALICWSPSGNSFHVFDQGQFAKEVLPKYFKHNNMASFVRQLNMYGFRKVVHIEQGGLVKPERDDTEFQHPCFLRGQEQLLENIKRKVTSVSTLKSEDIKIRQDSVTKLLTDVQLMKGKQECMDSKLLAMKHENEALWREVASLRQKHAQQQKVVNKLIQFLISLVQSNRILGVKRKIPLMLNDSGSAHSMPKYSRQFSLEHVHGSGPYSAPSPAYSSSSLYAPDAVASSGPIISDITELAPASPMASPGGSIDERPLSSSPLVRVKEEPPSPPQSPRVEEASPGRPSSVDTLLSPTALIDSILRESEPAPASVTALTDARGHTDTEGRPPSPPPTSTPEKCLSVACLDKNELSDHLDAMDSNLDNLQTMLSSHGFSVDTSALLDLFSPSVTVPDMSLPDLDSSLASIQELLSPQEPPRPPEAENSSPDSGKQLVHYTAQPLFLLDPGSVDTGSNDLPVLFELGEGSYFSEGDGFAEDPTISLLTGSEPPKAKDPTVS
UniProt P09651: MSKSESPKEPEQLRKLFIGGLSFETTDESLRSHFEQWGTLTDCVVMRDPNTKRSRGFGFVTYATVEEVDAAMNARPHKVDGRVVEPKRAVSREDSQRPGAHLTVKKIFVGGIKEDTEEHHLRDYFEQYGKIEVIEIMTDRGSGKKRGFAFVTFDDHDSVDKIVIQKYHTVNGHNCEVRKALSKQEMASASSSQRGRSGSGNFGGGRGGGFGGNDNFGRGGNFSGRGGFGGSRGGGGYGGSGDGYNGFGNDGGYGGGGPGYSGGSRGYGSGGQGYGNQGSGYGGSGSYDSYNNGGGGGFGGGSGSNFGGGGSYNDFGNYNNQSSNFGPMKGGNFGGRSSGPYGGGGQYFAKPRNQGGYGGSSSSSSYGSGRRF
UniProt Q86VS8: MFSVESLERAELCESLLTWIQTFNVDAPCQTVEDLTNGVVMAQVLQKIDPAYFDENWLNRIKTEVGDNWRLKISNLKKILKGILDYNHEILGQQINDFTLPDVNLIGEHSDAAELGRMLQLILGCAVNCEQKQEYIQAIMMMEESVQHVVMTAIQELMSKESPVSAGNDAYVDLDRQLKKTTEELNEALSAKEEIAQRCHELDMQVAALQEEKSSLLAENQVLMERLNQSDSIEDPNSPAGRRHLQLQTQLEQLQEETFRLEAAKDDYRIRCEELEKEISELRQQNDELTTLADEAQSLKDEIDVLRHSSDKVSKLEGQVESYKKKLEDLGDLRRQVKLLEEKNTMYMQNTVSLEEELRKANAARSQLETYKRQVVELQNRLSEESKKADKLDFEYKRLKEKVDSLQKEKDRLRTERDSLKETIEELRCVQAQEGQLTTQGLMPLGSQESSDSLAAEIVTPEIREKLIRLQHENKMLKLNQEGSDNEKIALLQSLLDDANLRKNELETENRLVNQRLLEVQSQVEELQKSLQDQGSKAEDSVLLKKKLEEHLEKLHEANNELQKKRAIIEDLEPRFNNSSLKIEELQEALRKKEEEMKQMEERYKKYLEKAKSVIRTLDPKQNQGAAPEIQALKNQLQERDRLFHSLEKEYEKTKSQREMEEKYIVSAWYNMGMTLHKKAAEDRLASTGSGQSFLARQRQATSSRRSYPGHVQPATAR
UniProt P11142, whole entry, looked up: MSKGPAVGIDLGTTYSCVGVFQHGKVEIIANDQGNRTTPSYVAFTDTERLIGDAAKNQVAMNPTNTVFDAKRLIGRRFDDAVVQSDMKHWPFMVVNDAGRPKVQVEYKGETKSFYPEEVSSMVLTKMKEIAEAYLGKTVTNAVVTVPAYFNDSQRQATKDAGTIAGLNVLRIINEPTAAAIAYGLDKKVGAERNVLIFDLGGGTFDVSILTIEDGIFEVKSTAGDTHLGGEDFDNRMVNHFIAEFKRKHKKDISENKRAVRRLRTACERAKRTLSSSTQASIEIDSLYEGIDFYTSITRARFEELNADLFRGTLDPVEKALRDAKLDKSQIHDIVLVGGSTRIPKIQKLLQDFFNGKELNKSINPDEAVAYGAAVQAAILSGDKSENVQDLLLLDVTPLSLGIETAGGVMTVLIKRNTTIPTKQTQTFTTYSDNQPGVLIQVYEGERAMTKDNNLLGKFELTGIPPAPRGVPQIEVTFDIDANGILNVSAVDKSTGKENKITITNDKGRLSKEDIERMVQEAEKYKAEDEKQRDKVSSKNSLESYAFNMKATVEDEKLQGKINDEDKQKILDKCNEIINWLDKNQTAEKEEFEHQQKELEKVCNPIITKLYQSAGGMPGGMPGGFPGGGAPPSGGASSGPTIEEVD
UniProt P51991: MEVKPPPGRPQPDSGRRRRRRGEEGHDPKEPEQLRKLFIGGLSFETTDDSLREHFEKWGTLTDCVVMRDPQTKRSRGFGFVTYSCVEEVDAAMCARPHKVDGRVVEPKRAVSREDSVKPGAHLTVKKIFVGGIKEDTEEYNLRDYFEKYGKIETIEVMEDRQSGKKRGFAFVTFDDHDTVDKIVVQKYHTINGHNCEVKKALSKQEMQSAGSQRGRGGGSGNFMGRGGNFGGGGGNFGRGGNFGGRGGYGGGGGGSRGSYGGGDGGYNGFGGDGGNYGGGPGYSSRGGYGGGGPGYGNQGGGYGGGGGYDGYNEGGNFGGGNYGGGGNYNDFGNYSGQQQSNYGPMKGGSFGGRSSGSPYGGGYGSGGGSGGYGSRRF
UniProt O00291: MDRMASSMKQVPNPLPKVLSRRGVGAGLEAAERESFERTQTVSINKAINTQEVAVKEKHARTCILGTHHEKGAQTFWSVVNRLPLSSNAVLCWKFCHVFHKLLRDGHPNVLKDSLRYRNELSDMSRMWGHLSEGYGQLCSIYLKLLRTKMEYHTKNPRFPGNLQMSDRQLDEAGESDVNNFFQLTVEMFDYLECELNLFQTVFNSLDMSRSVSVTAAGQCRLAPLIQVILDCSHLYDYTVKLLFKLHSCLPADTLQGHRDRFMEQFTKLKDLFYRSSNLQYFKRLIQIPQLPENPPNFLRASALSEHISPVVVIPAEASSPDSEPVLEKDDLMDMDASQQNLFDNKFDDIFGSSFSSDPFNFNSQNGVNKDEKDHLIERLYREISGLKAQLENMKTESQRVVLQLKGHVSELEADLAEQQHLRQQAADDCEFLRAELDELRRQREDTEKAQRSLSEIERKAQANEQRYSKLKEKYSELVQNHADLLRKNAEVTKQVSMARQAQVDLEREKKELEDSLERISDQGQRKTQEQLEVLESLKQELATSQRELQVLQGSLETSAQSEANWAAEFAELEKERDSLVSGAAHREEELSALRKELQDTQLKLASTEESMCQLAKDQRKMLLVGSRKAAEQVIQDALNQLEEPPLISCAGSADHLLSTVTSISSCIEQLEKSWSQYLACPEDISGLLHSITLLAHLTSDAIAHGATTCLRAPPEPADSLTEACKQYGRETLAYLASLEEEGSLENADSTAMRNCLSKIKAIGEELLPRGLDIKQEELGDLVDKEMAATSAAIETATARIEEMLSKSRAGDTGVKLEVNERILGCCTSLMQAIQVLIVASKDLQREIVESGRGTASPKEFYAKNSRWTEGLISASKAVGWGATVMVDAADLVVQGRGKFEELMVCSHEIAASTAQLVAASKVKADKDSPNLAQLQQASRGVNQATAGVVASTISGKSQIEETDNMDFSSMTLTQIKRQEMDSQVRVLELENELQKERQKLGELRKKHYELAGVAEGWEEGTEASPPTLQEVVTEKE

These targets were tested with C1=CC=C(C=C1)[C@H](COC2=CC3=C(C=C2)NC(=O)N3)NC(=O)C4=CC=CN(C4=O)CC5=CC(=C(C=C5)F)F (assay: log2 fold change, soluble protein after heating vs DMSO (PISA); higher = thermal stabilisation; K562 cells, 10 uM, 30 min; active = over 0.2 and 3.5 SD of the protein, either way, in both replicates (recomputed)).
Method in brief: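 For each measurement, 10 μM compound was applied for 30 min to K562 cells at 2×10^6 cells/mL. Aliquots were heated for 3 min across 48°C-58°C, pooled, and extracted in PBS with 0.5% NP-40 at 4°C; the supernatant after 21,000xg for 90 min was soluble protein. This was quantified by TMTpro 16plex LC-MS/MS with channel sums equalised, and thermal stability was reported relative to control samples from duplicates, on a log2 fold-change scale.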
In the case of HMBS (UniProt F5H226), the log2 fold change is reported as inactive: 0.294.
For HUWE1 (UniProt Q7Z6Z7), the log2 fold change was inactive: -0.032.
In the case of HNRNPUL2 (UniProt Q1KMD3), the log2 fold change is reported as inactive: 0.054.
In the case of HSPA4L (UniProt O95757), the log2 fold change is reported as inactive: -0.009.
With HMGB1 (UniProt P09429) the log2 fold change was inactive: -0.057.
In the case of HIKESHI (UniProt Q53FT3), the log2 fold change is reported as inactive: 0.014.
For HSPE1 (UniProt P61604), the log2 fold change was inactive: 0.036.
For HINT3 (UniProt Q9NQE9), the log2 fold change was inactive: -0.017.
In the case of HMGN3 (UniProt Q15651), the log2 fold change is reported as inactive: -0.013.
With HIST2H2BF isoform 2 (UniProt Q5QNW6) the log2 fold change was inactive: 0.148.
For HMGCS1 (UniProt Q01581), the log2 fold change was inactive: 0.029.
With HMGN1 (UniProt P05114) the log2 fold change was inactive: 0.042.
With HTRA2 (UniProt O43464) the log2 fold change was inactive: 0.03.
With HNRNPD (UniProt Q14103) the log2 fold change was inactive: 0.032.
For HLCS (UniProt P50747), the log2 fold change was inactive: 0.006.
HNRNPR isoform 2 (UniProt O43390) was tested, and the log2 fold change was inactive: 0.073.
HSF1 (UniProt Q00613) was tested, and the log2 fold change was inactive: -0.13.
HNRNPA2B1 (UniProt P22626) was tested, and the log2 fold change was inactive: 0.157.
HNRNPA1 (UniProt P09651) was tested, and the log2 fold change was inactive: 0.169.
With HOOK3 (UniProt Q86VS8) the log2 fold change was inactive: -0.065.
With HSPA1A (UniProt P0DMV8) the log2 fold change was inactive: -0.031.
In the case of HSPA8 (UniProt P11142), the log2 fold change is reported as inactive: -0.019.
With HHEX (UniProt Q03014) the log2 fold change was inactive: 0.054.
With HSPB1 (UniProt P04792) the log2 fold change was inactive: 0.038.
In the case of HNRNPK isoform 2 (UniProt P61978), the log2 fold change is reported as inactive: -0.027.
HOXB9 (UniProt P17482) was tested, and the log2 fold change was inactive: -0.027.
With HP1BP3 (UniProt Q5SSJ5) the log2 fold change was inactive: 0.015.
HPS1 (UniProt Q92902) was tested, and the log2 fold change was inactive: -0.021.
HSP90AA1 isoform 2 (UniProt P07900) was tested, and the log2 fold change was inactive: -0.03.
For HOMER1 (UniProt Q86YM7), the log2 fold change was inactive: -0.08.
With HNRNPA3 (UniProt P51991) the log2 fold change was inactive: 0.18.
For HIP1R (UniProt O75146), the log2 fold change was inactive: -0.038.
With HIP1 (UniProt O00291) the log2 fold change was inactive: 0.137.
